No constants are given. Whether binding was seen depends on the method and setting. Some binding calls cover weakened binding; strength is not graded here.
Target: T1, Recombinant rat IFN-γ (rat) (UniProt P01581)
T1 sequence: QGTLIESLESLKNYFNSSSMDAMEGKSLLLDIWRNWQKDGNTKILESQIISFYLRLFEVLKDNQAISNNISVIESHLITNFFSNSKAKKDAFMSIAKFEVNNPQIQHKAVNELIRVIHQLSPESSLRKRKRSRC
Test: competitive ELISA, figure legend of FIG. 32A

Substance: VACV encoded B8R in filtered supernatant from VACV IL-12 infected HeLa cells (from UniProt P21004 14-272)
- binding: binds
